Reference: PubChem BioAssay AID493246 (Drosophila RNAi Screening Center, 2011)

Assay: 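Identify essential fly genes by loss of cell viability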 (primary screen)
System: Drosophila Kc and S2R+ cells
Reagent: long dsRNA against Drosophila genes
Measured: 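Cell number per well after knock-down, printed as raw plate values; calls were based on per-plate z-scores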
Reading the numbers: Kc cell number and S2R+ cell number: higher = more cells remaining
Hit rule: 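Counted as a hit if cell number falls by a z-score of at least 3 within its plate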
In all, the deposit lists about 21,000 reagents; shown is a random part of those that have a named target and a result. Over the whole deposit, 429 (2%) were called active. 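Values are raw and not normalised between plates; calls rest on per-plate z-scores that were not deposited.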 Entries without a mark were called inactive. Names joined by + are all predicted targets of the reagent. Not stated in the record: the amount of reagent, the time to read-out.

| target | dsRNA | Kc cell number, rep 1 | Kc cell number, rep 2 | S2R+ cell number, rep 1 | S2R+ cell number, rep 2 |
| --- | --- | --- | --- | --- | --- |
| Npc2d (Niemann-Pick type C-2d) | DRSC14551 | 1.57e6 | 1.54e6 | 1.17e6 | 1.31e6 |
| Cam (Calmodulin) | DRSC07353 | 1.44e6 | 1.52e6 | 1.23e6 | 1.42e6 |
| Cam (Calmodulin) | DRSC07354 | 1.56e6 | 1.51e6 | 1.28e6 | 1.39e6 |
| Ugt37C2 (UDP-glycosyltransferase family 37 member C2) | DRSC02247 | 1.47e6 | 1.64e6 | 1.17e6 | 1.35e6 |
| CG12316 | DRSC09879 | 1.53e6 | 1.54e6 | 1.31e6 | 1.32e6 |
| CG17047 | DRSC06648 | 1.67e6 | 1.80e6 | 1.43e6 | 1.55e6 |
| Tbce (Tubulin-binding cofactor E) | DRSC04897 | 1.50e6 | 1.59e6 | 1.05e6 | 9.80e5 |
| CG9281 | DRSC20179 | 5.39e5 | – | 8.15e5 | – |
| mim (missing-in-metastasis) | DRSC05013 | 8.75e5 (active) | 1.20e6 | 5.65e5 | 6.18e5 |
| CG14860 | DRSC14983 | 1.39e6 | 1.48e6 | 1.31e6 | 1.49e6 |
| E(spl)m3-HLH (Enhancer of split m3, helix-loop-helix) | DRSC16694 | 1.34e6 | 1.36e6 | 6.92e5 | 7.66e5 |
| Nazo | DRSC14343 | 1.71e6 | 1.88e6 | 1.25e6 | 1.30e6 |
| CG31809 | DRSC01561 | 1.44e6 | 1.49e6 | 9.04e5 | 1.09e6 |
| soti (scotti) | DRSC16432 | 1.63e6 | 1.79e6 | 1.37e6 | 1.43e6 |
| rno (rhinoceros) | DRSC08584 | 1.56e6 | 1.41e6 | 1.05e6 | 1.22e6 |
| CG16865 | DRSC01904 | 1.52e6 | 1.48e6 | 1.26e6 | 1.36e6 |

Entries listed so far whose target name starts with N or n (2):
| target | dsRNA | Kc cell number, rep 1 | Kc cell number, rep 2 | S2R+ cell number, rep 1 | S2R+ cell number, rep 2 |
| --- | --- | --- | --- | --- | --- |
| Npc2d (Niemann-Pick type C-2d) | DRSC14551 | 1.57e6 | 1.54e6 | 1.17e6 | 1.31e6 |
| Nazo | DRSC14343 | 1.71e6 | 1.88e6 | 1.25e6 | 1.30e6 |

The results go on:
| target | dsRNA | Kc cell number, rep 1 | Kc cell number, rep 2 | S2R+ cell number, rep 1 | S2R+ cell number, rep 2 |
| --- | --- | --- | --- | --- | --- |
| CG32198 | DRSC09553 | 1.42e6 | 1.56e6 | 1.17e6 | 1.31e6 |
| CG15572 | DRSC18060 | 1.67e6 | 1.66e6 | 1.02e6 | 1.13e6 |
| LanB2 (Laminin B2) | DRSC11208 | 1.37e6 | 1.49e6 | 1.28e6 | 1.27e6 |
| Grl62c (Gustatory receptor-like 62c) | DRSC07964 | 1.51e6 | 1.45e6 | 1.01e6 | 1.20e6 |
| CG8673 | DRSC03105 | 1.51e6 | 1.58e6 | 1.19e6 | 1.30e6 |
| CG42714 | DRSC08798 | 1.64e6 | 1.70e6 | 1.10e6 | 1.26e6 |
| Nup154 (Nucleoporin 154kD) | DRSC03384 | 1.18e6 | 1.35e6 | 9.41e5 | 1.00e6 |
| FMRFa (FMRFamide) | DRSC07428 | 1.42e6 | 1.57e6 | 1.24e6 | 1.31e6 |
| CG42512 + CG32573 | DRSC19532 | 1.51e6 | 1.53e6 | 1.06e6 | 1.08e6 |
| CG42512 + CG32573 | DRSC19906 | 1.63e6 | 1.70e6 | 1.09e6 | 1.21e6 |
| kud (kuduk) | DRSC11086 | 1.25e6 | 1.52e6 | 1.36e6 | 1.47e6 |
| CG14427 | DRSC17921 | 1.74e6 | 1.78e6 | 1.12e6 | 1.30e6 |
| ImpE3 (Ecdysone-inducible gene E3) | DRSC16716 | 1.43e6 | 1.60e6 | 1.27e6 | 1.33e6 |
| Or43b (Odorant receptor 43b) | DRSC07486 | 1.49e6 | 1.59e6 | 1.18e6 | 1.34e6 |
| CG33460 | DRSC05570 | 1.60e6 | 1.61e6 | 1.07e6 | 1.31e6 |
| Obp56e (Odorant-binding protein 56e) | DRSC07188 | 1.63e6 | 1.64e6 | 1.30e6 | 1.39e6 |
| APC7 (Anaphase Promoting Complex subunit 7) | DRSC17937 | 5.31e5 | – | 8.87e5 | – |
| Arp6 (Actin-related protein 6) | DRSC19326 | 6.15e5 | – | 8.56e5 | – |
| kuk (kugelkern) | DRSC15730 | 1.54e6 | 1.70e6 | 1.20e6 | 1.28e6 |
| Obp8a (Odorant-binding protein 8a) | DRSC17868 | 1.54e6 | 1.54e6 | 9.88e5 | 1.13e6 |
| Dif (Dorsal-related immunity factor) | DRSC03316 | 1.49e6 | 1.57e6 | 1.20e6 | 1.33e6 |
| CG8128 | DRSC20084 | 5.83e5 | – | 9.41e5 | – |
| CG1888 | DRSC06797 | 1.60e6 | 1.62e6 | 1.33e6 | 1.38e6 |
| nAChRalpha3 (nicotinic Acetylcholine Receptor alpha3) | DRSC18800 | 1.49e6 | 1.42e6 | 1.07e6 | 1.15e6 |
